The name of at least one read-out is uncertain.
Biological target: Aβ1-42 peptide (Homo sapiens, UniProt P05067)
Assay: Thioflavin T spectrofluorescence assay (ThT-assay): inhibition of Aβ1-42 aggregation (% inhibition at 330 μM; IC50 from dilution series)
Conditions: 330 μM small molecule, 33 μM Aβ1-42 (10:1), 24 hrs at 37° C., mean ± standard deviation of two independent experiments

Sequences of proteins named here, by UniProt entry; tags and fusion partners are left off. Residues count along the entry.
UniProt P05067, 672-713 limits assumed: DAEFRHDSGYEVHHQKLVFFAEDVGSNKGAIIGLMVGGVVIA

CNC1CCc2c(c3ccc(Nc4ccc5c(c4)OCCO5)nc3n2C)C1 (racemic) [Example 156]
Inhibition at 330 μM [%]: 97.4 ± 0.4%
